Assay results: PMC8913686
Results are given in words; binding and its absence hold for the method and conditions named. In cells and extracts the contact can be indirect. A yes stands for co-enrichment or nearness to the bait. Other partners may have been found. Sequences can lack the tags named with a protein.

The chains behind the UniProt entries cited, without tags or fusion partners. Residues count along the entry.
UniProt Q04721, residues 26-2471: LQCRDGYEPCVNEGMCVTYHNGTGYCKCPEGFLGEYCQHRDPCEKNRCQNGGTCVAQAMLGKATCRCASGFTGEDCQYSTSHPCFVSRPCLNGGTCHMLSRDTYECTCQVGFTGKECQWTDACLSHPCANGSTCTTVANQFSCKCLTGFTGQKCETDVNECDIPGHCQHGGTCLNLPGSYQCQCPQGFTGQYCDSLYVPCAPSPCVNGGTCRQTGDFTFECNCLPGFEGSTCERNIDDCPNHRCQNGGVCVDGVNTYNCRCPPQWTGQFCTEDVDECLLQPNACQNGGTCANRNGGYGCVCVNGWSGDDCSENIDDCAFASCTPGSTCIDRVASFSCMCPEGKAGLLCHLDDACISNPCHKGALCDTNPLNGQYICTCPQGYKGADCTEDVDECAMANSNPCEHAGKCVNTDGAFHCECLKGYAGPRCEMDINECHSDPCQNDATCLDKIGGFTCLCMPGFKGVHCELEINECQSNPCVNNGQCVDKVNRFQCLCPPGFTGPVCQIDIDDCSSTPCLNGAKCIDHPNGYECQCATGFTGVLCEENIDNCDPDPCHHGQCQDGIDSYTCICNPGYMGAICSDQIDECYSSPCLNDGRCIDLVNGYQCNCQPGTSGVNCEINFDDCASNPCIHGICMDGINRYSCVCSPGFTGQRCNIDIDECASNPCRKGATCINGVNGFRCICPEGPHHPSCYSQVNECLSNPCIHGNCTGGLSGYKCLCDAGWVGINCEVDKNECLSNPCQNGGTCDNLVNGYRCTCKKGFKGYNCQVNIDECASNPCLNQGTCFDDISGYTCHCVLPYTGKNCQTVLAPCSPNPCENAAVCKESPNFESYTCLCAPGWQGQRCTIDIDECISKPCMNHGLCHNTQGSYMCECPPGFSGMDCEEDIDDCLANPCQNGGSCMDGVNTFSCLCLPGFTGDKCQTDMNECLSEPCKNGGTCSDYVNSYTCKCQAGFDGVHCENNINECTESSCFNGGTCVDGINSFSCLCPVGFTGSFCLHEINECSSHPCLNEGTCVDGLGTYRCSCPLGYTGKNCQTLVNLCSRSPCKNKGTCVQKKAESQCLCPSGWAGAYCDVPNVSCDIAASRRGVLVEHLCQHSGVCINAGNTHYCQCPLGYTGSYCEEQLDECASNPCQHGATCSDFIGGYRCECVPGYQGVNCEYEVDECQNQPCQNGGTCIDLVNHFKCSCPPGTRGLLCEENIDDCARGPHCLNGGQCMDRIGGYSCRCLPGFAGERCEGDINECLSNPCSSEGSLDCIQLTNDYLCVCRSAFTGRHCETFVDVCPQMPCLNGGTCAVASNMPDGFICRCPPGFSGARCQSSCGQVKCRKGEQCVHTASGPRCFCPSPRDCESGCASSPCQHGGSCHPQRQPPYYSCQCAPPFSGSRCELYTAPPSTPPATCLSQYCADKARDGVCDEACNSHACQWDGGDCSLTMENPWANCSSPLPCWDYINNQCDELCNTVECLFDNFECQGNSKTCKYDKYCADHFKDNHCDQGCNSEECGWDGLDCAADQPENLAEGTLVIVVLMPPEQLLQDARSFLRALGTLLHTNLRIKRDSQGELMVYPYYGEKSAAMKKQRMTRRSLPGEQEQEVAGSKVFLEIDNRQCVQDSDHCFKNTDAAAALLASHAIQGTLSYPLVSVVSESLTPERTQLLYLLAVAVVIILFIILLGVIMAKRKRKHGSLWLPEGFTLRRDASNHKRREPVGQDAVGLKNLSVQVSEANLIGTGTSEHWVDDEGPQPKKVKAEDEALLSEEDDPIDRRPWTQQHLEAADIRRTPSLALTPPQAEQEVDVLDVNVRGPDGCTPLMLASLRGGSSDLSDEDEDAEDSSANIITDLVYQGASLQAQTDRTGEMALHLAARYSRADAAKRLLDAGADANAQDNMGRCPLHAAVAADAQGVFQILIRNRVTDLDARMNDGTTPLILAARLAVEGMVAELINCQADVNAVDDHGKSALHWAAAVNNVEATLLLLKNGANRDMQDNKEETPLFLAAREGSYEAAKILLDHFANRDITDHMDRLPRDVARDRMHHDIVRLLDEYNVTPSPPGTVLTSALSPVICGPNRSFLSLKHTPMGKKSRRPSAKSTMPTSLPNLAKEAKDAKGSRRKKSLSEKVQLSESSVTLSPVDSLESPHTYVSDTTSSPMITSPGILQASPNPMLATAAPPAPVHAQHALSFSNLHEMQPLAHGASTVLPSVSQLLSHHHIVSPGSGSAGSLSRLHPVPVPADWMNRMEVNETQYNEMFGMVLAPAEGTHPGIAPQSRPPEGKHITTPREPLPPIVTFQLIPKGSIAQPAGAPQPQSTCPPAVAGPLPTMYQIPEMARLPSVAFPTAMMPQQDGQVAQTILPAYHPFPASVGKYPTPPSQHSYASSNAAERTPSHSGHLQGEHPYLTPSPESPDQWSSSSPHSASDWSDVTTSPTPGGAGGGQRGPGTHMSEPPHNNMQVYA

Biological target: T1, Flag-tagged Kir2.1 (inwardly-rectifying potassium channel J2) (human) (UniProt P63252)
T1 sequence: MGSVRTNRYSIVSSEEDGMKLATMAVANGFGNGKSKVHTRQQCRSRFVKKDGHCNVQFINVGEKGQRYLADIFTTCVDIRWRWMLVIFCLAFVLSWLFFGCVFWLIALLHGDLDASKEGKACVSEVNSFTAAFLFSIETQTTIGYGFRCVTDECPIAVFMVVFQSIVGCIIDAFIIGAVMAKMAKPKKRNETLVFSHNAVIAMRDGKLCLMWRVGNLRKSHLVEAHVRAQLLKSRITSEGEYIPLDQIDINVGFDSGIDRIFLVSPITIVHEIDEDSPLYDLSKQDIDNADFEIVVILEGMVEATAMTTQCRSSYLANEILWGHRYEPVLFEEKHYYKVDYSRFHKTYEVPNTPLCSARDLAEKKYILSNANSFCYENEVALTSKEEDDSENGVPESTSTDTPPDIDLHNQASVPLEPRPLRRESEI
Experiment: affinity purification with mass spectrometry; 10 ug anti-Flag antibody (IgG as control) immobilised on AminoLink Plus coupling resin; 250 ug MB cell lysate, 4 °C overnight; eluate analysed by mass spectrometry

binding: binds
Substance: Notch2-full length (from UniProt Q04721 26-2471) (receptor)
